Reference: paper PMC5359578
These are yes or no findings as the source states them, for the method shown. Binding seen in cells or lysates may run through a third protein. Some binding calls cover weakened binding; strength is not graded here.

Chains of the proteins cited; added tags and fusions are not shown.
UniProt P16220: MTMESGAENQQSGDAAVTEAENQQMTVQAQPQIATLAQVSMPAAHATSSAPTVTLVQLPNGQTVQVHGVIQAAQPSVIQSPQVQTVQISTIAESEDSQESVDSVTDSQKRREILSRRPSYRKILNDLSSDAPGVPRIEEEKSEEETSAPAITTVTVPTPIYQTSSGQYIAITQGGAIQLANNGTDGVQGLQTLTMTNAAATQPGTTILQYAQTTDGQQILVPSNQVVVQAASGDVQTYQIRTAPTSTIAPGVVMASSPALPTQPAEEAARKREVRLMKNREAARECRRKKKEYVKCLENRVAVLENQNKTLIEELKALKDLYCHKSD
UniProt Q13950: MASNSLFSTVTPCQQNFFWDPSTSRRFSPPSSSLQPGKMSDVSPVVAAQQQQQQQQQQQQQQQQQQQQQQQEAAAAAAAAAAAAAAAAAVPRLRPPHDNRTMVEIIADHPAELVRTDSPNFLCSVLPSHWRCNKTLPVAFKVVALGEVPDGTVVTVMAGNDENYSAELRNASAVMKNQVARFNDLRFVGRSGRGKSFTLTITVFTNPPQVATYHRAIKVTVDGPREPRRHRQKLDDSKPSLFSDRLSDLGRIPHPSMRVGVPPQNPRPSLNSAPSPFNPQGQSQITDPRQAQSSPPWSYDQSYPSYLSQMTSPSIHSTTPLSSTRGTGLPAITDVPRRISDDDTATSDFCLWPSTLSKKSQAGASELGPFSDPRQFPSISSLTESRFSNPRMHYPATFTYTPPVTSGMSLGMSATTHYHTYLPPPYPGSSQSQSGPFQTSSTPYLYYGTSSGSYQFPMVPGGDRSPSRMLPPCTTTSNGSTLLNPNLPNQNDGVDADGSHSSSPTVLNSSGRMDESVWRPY

B1: p73, endogenous (protein, UniProt O15350 1-636)
chain: MAQSTATSPDGGTTFEHLWSSLEPDSTYFDLPQSSRGNNEVVGGTDSSMDVFHLEGMTTSVMAQFNLLSSTMDQMSSRAASASPYTPEHAASVPTHSPYAQPSSTFDTMSPAPVIPSNTDYPGPHHFEVTFQQSSTAKSATWTYSPLLKKLYCQIAKTCPIQIKVSTPPPPGTAIRAMPVYKKAEHVTDVVKRCPNHELGRDFNEGQSAPASHLIRVEGNNLSQYVDDPVTGRQSVVVPYEPPQVGTEFTTILYNFMCNSSCVGGMNRRPILIIITLEMRDGQVLGRRSFEGRICACPGRDRKADEDHYREQQALNESSAKNGAASKRAFKQSPPAVPALGAGVKKRRHGDEDTYYLQVRGRENFEILMKLKESLELMELVPQPLVDSYRQQQQLLQRPSHLQPPSYGPVLSPMNKVHGGMNKLPSVNQLVGQPPPHSSAATPNLGPVGPGMLNNHGHAVPANGEMSSSHSAQSMVSGSHCTPPPPYHADPSLVSFLTGLGCPNCIEYFTSQGLQSIYHLQNLTIEDLGALKIPEQYRMTIWRGLQDLKQGHDYSTAQQLLRSSNAATISIGGSGELQRQRVMEAVHFRVRHTITIPNRGGPGGGPDEWADFGFDLPDCKARKQPIKEEFTEAEIH

Key:
[1] = biological target: Yes-associated protein (YAP), endogenous (human (endogenous in Bel-7402 and Bel-7404)) (UniProt P46937); experiment: co-IP; cells with or without overexpression of AMOT; endogenous YAP immuno-precipitated by anti-YAP; partners detected by Western blot
[2] = biological target: Yes-associated protein (YAP), endogenous (human (endogenous in Bel-7402 and Bel-7404)) (UniProt P46937); experiment: co-IP; endogenous YAP immuno-precipitated by anti-YAP from Bel-7402 and Bel-7404 cells treated with DMSO or TPA (16-48 uM, 24 h); partners detected by Western blot
[3] = biological target: YAP-FLAG (UniProt P46937); experiment: co-IP; Bel-7402 cells co-transfected with YAP-FLAG and a tagged transcription factor, treated with DMSO or TPA (16-32 uM); YAP-FLAG immuno-precipitated by anti-FLAG; partners detected by Western blot
[4] = biological target: YAP-FLAG (UniProt P46937); experiment: co-IP; Bel-7402 cells co-transfected with YAP-FLAG and a tagged transcription factor, and with increasing concentrations of AMOT-HA; YAP-FLAG immuno-precipitated by anti-FLAG; partners detected by Western blot

Molecule	binding [1]	binding [2]	binding [3]	binding [4]
CREB, endogenous (from UniProt P16220 1-327)	binds	binds	–	–
CREB-HA (from UniProt P16220 1-327)	–	–	binds	binds
Runx2, endogenous (from UniProt Q13950 1-521)	binds	binds	–	–
Runx2-HA (from UniProt Q13950 1-521)	–	–	binds	binds
B1	binds	binds	–	–
